Data published in the supplement of paper PMC8728848.
The list shows a part of the results.

Experiments:
Assay in all cases: glycan array binding signal (z-score within array); higher = stronger binding
Settings in all cases: glycan notation: IUPAC condensed, linker removed
[1] = target: Neu5Ac(a2-6)Gal(b1-4)GlcNAc(b1-2)Man(a1-3)[Neu5Ac(a2-3)Gal(b1-4)GlcNAc(b1-2)Man(a1-6)]Man(b1-4)GlcNAc(b1-4)GlcNAc
Outline: (§1)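 From the Consortium for Functional Glycomics database, 3228 arrays were curated, keeping only those whose protein sequence was available. Binding is given as a within-array Z-score averaged across arrays sharing a protein sequence and across linkers. Negative Z-scores can be read as non-binding.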

[2] = target: Neu5Ac(a2-6)Gal(b1-4)GlcNAc(b1-2)Man(a1-3)[Neu5Ac(a2-6)Gal(b1-4)GlcNAc(b1-2)Man(a1-6)]Man(b1-4)GlcNAc(b1-4)GlcNAc
Outline: as §1

[3] = target: Neu5Ac(a2-6)Gal(b1-4)GlcNAc(b1-2)Man(a1-3)[Neu5Ac(a2-6)Gal(b1-4)GlcNAc(b1-2)Man(a1-6)]Man(b1-4)GlcNAc(b1-4)[Fuc(a1-6)]GlcNAc
Outline: as §1

[4] = target: Neu5Ac(a2-6)Gal(b1-4)GlcNAc(b1-2)Man(a1-6)Man(b1-4)GlcNAc(b1-4)GlcNAc
Outline: as §1

[5] = target: Neu5Ac(a2-6)Gal(b1-4)GlcNAc(b1-2)Man(a1-6)[Gal(b1-4)GlcNAc(b1-2)Man(a1-3)]Man(b1-4)GlcNAc(b1-4)GlcNAc
Outline: as §1

[6] = target: Neu5Ac(a2-6)Gal(b1-4)GlcNAc(b1-2)Man(a1-6)[GlcNAc(b1-2)Man(a1-3)]Man(b1-4)GlcNAc(b1-4)GlcNAc
Outline: as §1

[7] = target: Neu5Ac(a2-6)Gal(b1-4)GlcNAc(b1-2)Man(a1-6)[Man(a1-3)]Man(b1-4)GlcNAc(b1-4)GlcNAc
Outline: as §1

[8] = target: Neu5Ac(a2-6)Gal(b1-4)GlcNAc(b1-2)[Neu5Ac(a2-6)Gal(b1-4)GlcNAc(b1-4)]Man(a1-3)[GlcNAc(b1-4)][Neu5Ac(a2-6)Gal(b1-4)GlcNAc(b1-2)[Neu5Ac(a2-6)Gal(b1-4)GlcNAc(b1-6)]Man(a1-6)]Man(b1-4)GlcNAc(b1-4)GlcNAc
Outline: as §1

[9] = target: Neu5Ac(a2-6)Gal(b1-4)GlcNAc(b1-2)[Neu5Ac(a2-6)Gal(b1-4)GlcNAc(b1-4)]Man(a1-3)[GlcNAc(b1-4)][Neu5Ac(a2-6)Gal(b1-4)GlcNAc(b1-4)Man(a1-6)]Man(b1-4)GlcNAc(b1-4)GlcNAc
Outline: as §1

[10] = target: Neu5Ac(a2-6)Gal(b1-4)GlcNAc(b1-2)[Neu5Ac(a2-6)Gal(b1-4)GlcNAc(b1-6)]Man(a1-6)[Neu5Ac(a2-6)Gal(b1-4)GlcNAc(b1-2)Man(a1-3)][GlcNAc(b1-4)]Man(b1-4)GlcNAc(b1-4)GlcNAc
Outline: as §1

[11] = target: Neu5Ac(a2-6)Gal(b1-4)GlcNAc(b1-3)Gal(b1-3)GlcNAc
Outline: as §1

[12] = target: Neu5Ac(a2-6)Gal(b1-4)GlcNAc(b1-3)Gal(b1-4)GlcNAc
Outline: as §1

[13] = target: Neu5Ac(a2-6)Gal(b1-4)GlcNAc(b1-3)Gal(b1-4)GlcNAc(b1-2)Man(a1-3)[Neu5Ac(a2-6)Gal(b1-4)GlcNAc(b1-3)Gal(b1-4)GlcNAc(b1-2)Man(a1-6)]GalNAc
Outline: as §1

[14] = target: Neu5Ac(a2-6)Gal(b1-4)GlcNAc(b1-3)Gal(b1-4)GlcNAc(b1-3)Gal(b1-4)GlcNAc
Outline: as §1

[15] = target: Neu5Ac(a2-6)Gal(b1-4)GlcNAc(b1-3)Gal(b1-4)GlcNAc(b1-3)Gal(b1-4)GlcNAc(b1-2)Man(a1-3)[Neu5Ac(a2-6)Gal(b1-4)GlcNAc(b1-3)Gal(b1-4)GlcNAc(b1-3)Gal(b1-4)GlcNAc(b1-2)Man(a1-6)]GalNAc
Outline: as §1

[16] = target: Neu5Ac(a2-6)Gal(b1-4)GlcNAc(b1-3)Gal(b1-4)GlcNAc(b1-3)GalNAc
Outline: as §1

[17] = target: Neu5Ac(a2-6)Gal(b1-4)GlcNAc(b1-3)Gal(b1-4)GlcNAc(b1-3)[Neu5Ac(a2-6)Gal(b1-4)GlcNAc(b1-3)Gal(b1-4)GlcNAc(b1-6)]GalNAc
Outline: as §1

[18] = target: Neu5Ac(a2-6)Gal(b1-4)GlcNAc(b1-3)Gal(b1-4)GlcNAc(b1-6)[Gal(b1-3)]GalNAc
Outline: as §1

[19] = target: Neu5Ac(a2-6)Gal(b1-4)GlcNAc(b1-3)Gal(b1-4)[Fuc(a1-3)]GlcNAc(b1-3)Gal(b1-4)[Fuc(a1-3)]GlcNAc
Outline: as §1

[20] = target: Neu5Ac(a2-6)Gal(b1-4)GlcNAc(b1-3)GalNAc
Outline: as §1

[21] = target: Neu5Ac(a2-6)Gal(b1-4)GlcNAc(b1-3)[Neu5Ac(a2-6)Gal(b1-4)GlcNAc(b1-6)]GalNAc
Outline: as §1

[22] = target: Neu5Ac(a2-6)Gal(b1-4)GlcNAc(b1-6)GalNAc
Outline: as §1

[23] = target: Neu5Ac(a2-6)Gal(b1-4)GlcNAc(b1-6)[Gal(b1-3)GlcNAc(b1-3)]Gal(b1-4)Glc
Outline: as §1

[24] = target: Neu5Ac(a2-6)Gal(b1-4)GlcNAc(b1-6)[Gal(b1-3)]GalNAc
Outline: as §1

[25] = target: Neu5Ac(a2-6)Gal(b1-4)GlcNAc6S
Outline: as §1

[26] = target: Neu5Ac(a2-6)GalNAc
Outline: as §1

[27] = target: Neu5Ac(a2-6)GalNAc(b1-4)GlcNAc
Outline: as §1

[28] = target: Neu5Ac(a2-6)GalNAc(b1-4)GlcNAc6S
Outline: as §1

[29] = target: Neu5Ac(a2-6)GlcNAc(b1-4)GlcNAc
Outline: as §1

[30] = target: Neu5Ac(a2-6)GlcNAc(b1-4)GlcNAc(b1-4)GlcNAc
Outline: as §1

B1: Wzz (Escherichia coli) (protein)
chain: MRTWKFPSVRVMMRVENNNVSGQNHDPEQIDLIDLLVQLWRGKMTIIISVIVAIVLAIGYLAVAKEKWTSTAIITQPDVGQIAGYNNAMNVIYGQAAPKVSDLQETLIGRFSSAFSALAETLDNQEEPEKLTIEPSVKNQQLPLTVSYVGQTAEGAQMKLAQYIQQVDDKVNQELEKDLKDNIALGRKNLQDSLRTQEVVAQEQKDLRIRQIQEALQYANQAQVTKPQIQQTGEDITQDTLFLLGSEALESMIKHEATRPLVFSSNYYQTRQNLLDIDNLDVDKLDIHAYLYVMKPTLPIRRDSPKKAITLILAVLLGGMVGAGIVLGRNALRNYNAK
[1]
  glycan array binding signal (z-score): -0.083
[2]
  glycan array binding signal (z-score): -0.151
[3]
  glycan array binding signal (z-score): -0.603
[4]
  glycan array binding signal (z-score): 2.29
[5]
  glycan array binding signal (z-score): 1.24
[6]
  glycan array binding signal (z-score): 0.335
[7]
  glycan array binding signal (z-score): 1.66
[8]
  glycan array binding signal (z-score): -0.038
[9]
  glycan array binding signal (z-score): -0.003
[10]
  glycan array binding signal (z-score): 0.568
[11]
  glycan array binding signal (z-score): -0.164
[12]
  glycan array binding signal (z-score): -0.401
[13]
  glycan array binding signal (z-score): 0.089
[14]
  glycan array binding signal (z-score): -0.268
[15]
  glycan array binding signal (z-score): 0.712
[16]
  glycan array binding signal (z-score): -0.637
[17]
  glycan array binding signal (z-score): 0.074
[18]
  glycan array binding signal (z-score): 1.21
[19]
  glycan array binding signal (z-score): 0.316
[20]
  glycan array binding signal (z-score): 0.018
[21]
  glycan array binding signal (z-score): 1.31
[22]
  glycan array binding signal (z-score): 1.4
[23]
  glycan array binding signal (z-score): -0.436
[24]
  glycan array binding signal (z-score): 0.187
[25]
  glycan array binding signal (z-score): -0.593
[26]
  glycan array binding signal (z-score): -0.89
[27]
  glycan array binding signal (z-score): -0.993
[28]
  glycan array binding signal (z-score): -0.127
[29]
  glycan array binding signal (z-score): 0.29
[30]
  glycan array binding signal (z-score): -0.069
